We go through five molecules from paper doi:10.1101/681411.

Sequences of proteins named here, by UniProt entry; tags and fusion partners are left off.
UniProt P00550, whole entry: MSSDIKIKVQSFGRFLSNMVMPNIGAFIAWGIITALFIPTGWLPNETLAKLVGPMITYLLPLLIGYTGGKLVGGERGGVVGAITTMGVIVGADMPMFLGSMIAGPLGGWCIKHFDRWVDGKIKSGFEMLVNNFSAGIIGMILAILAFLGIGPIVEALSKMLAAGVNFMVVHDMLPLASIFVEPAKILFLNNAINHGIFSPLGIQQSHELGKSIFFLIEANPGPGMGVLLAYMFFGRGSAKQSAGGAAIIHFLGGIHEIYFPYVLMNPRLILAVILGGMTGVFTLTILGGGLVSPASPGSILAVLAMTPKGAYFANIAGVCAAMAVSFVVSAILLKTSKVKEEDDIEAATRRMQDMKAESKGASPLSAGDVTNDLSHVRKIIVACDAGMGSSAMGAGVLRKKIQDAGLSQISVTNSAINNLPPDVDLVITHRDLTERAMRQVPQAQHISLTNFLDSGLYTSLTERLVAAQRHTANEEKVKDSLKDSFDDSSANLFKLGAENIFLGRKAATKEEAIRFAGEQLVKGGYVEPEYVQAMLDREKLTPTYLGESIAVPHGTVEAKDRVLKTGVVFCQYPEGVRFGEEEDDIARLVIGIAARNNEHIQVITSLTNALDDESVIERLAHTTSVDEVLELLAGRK

These are yes or no findings as the source states them, for the method shown. Some results given as binding are weak or reduced against the parent protein; the word gives no strength. Where a sequence is shown, tags or fusion partners need not be part of it.

Test [1] addresses T1, FruA (fructose-specific Enzyme IICBB' of the PTS) (E. coli K-12 BW25113) (UniProt P20966).
T1 sequence: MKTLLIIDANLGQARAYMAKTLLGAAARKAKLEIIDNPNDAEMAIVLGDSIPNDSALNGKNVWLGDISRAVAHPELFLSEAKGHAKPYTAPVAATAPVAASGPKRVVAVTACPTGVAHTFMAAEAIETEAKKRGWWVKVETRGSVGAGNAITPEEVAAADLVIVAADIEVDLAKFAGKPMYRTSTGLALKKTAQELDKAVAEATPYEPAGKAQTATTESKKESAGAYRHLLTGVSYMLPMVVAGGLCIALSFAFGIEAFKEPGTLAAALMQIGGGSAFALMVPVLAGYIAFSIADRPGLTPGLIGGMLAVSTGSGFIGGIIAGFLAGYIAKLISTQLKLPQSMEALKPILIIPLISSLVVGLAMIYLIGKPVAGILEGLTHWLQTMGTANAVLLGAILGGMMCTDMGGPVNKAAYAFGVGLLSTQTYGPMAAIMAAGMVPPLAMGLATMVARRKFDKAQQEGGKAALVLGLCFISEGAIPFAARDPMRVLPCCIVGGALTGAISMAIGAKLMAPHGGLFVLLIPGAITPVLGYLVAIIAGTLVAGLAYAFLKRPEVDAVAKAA
Kind of test: two-hybrid.

The target in test [2] is T2, FruB (fructose-specific enzyme IIA-FPr protein) (E. coli K-12 BW25113) (UniProt P69811).
T2 sequence: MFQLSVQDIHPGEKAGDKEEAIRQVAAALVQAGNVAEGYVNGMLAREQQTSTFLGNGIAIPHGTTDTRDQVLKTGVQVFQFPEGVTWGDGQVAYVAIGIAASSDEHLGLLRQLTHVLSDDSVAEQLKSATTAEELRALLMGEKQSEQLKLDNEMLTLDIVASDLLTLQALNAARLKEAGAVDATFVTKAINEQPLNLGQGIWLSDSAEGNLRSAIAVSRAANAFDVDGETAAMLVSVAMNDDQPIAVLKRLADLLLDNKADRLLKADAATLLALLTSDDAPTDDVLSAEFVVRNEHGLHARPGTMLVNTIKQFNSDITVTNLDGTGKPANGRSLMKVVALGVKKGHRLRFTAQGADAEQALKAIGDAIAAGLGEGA
Put plainly: two-hybrid.

On to “MtlA (mannitol-specific Enzyme IICBA) (from UniProt P00550 1-637)”, for which the binding entry in test [1] and in test [2] was “binds” in each case.

B1: TreB (trehalose Enzyme IIBC) (protein, UniProt P36672 1-473)
chain: MMSKINQTDIDRLIELVGGRGNIATVSHCITRLRFVLNQPANARPKEIEQLPMVKGCFTNAGQFQVVIGTNVGDYYQALIASTGQAQVDKEQVKKAARHNMKWHEQLISHFAVIFFPLLPALISGGLILGFRNVIGDLPMSNGQTLAQMYPSLQTIYDFLWLIGEAIFFYLPVGICWSAVKKMGGTPILGIVLGVTLVSPQLMNAYLLGQQLPEVWDFGMFSIAKVGYQAQVIPALLAGLALGVIETRLKRIVPDYLYLVVVPVCSLILAVFLAHALIGPFGRMIGDGVAFAVRHLMTGSFAPIGAALFGFLYAPLVITGVHQTTLAIDLQMIQSMGGTPVWPLIALSNIAQGSAVIGIIISSRKHNEREISVPAAISAWLGVTEPAMYGINLKYRFPMLCAMIGSGLAGLLCGLNGVMANGIGVGGLPGILSIQPSYWQVFALAMAIAIIIPIVLTSFIYQRKYRLGTLDIV
B1: the binding result in test [1] was “binds”.

B2: GatC (galactitol Enzyme IIC) (protein, UniProt P69831 1-451)
chain: MFSEVMRYILDLGPTVMLPIVIIIFSKILGMKAGDCFKAGLHIGIGFVGIGLVIGLMLDSIGPAAKAMAENFDLNLHVVDVGWPGSSPMTWASQIALVAIPIAILVNVAMLLTRMTRVVNVDIWNIWHMTFTGALLHLATGSWMIGMAGVVIHAAFVYKLGDWFARDTRNFFELEGIAIPHGTSAYMGPIAVLVDAIIEKIPGVNRIKFSADDIQRKFGPFGEPVTVGFVMGLIIGILAGYDVKGVLQLAVKTAAVMLLMPRVIKPIMDGLTPIAKQARSRLQAKFGGQEFLIGLDPALLLGHTAVVSASLIFIPLTILIAVCVPGNQVLPFGDLATIGFFVAMAVAVHRGNLFRTLISGVIIMSITLWIATQTIGLHTQLAANAGALKAGGMVASMDQGGSPITWLLIQVFSPQNIPGFIIIGAIYLTGIFMTWRRARGFIKQEKVVLAE
In the case of B2, the binding result in test [1] was “binds”.

B3: FruB (fructose-specific enzyme IIA-FPr protein) (protein, UniProt P69811 1-376)
chain: MFQLSVQDIHPGEKAGDKEEAIRQVAAALVQAGNVAEGYVNGMLAREQQTSTFLGNGIAIPHGTTDTRDQVLKTGVQVFQFPEGVTWGDGQVAYVAIGIAASSDEHLGLLRQLTHVLSDDSVAEQLKSATTAEELRALLMGEKQSEQLKLDNEMLTLDIVASDLLTLQALNAARLKEAGAVDATFVTKAINEQPLNLGQGIWLSDSAEGNLRSAIAVSRAANAFDVDGETAAMLVSVAMNDDQPIAVLKRLADLLLDNKADRLLKADAATLLALLTSDDAPTDDVLSAEFVVRNEHGLHARPGTMLVNTIKQFNSDITVTNLDGTGKPANGRSLMKVVALGVKKGHRLRFTAQGADAEQALKAIGDAIAAGLGEGA
For B3, the binding result in test [1] is on record as “binds”.

B4: NagE (N-acetylglucosamine Enzyme IICBA) (protein, UniProt P09323 1-648)
chain: MNILGFFQRLGRALQLPIAVLPVAALLLRFGQPDLLNVAFIAQAGGAIFDNLALIFAIGVASSWSKDSAGAAALAGAVGYFVLTKAMVTINPEINMGVLAGIITGLVGGAAYNRWSDIKLPDFLSFFGGKRFVPIATGFFCLVLAAIFGYVWPPVQHAIHAGGEWIVSAGALGSGIFGFINRLLIPTGLHQVLNTIAWFQIGEFTNAAGTVFHGDINRFYAGDGTAGMFMSGFFPIMMFGLPGAALAMYFAAPKERRPMVGGMLLSVAVTAFLTGVTEPLEFLFMFLAPLLYLLHALLTGISLFVATLLGIHAGFSFSAGAIDYALMYNLPAASQNVWMLLVMGVIFFAIYFVVFSLVIRMFNLKTPGREDKEDEIVTEEANSNTEEGLTQLATNYIAAVGGTDNLKAIDACITRLRLTVADSARVNDTMCKRLGASGVVKLNKQTIQVIVGAKAESIGDAMKKVVARGPVAAASAEATPATAAPVAKPQAVPNAVSIAELVSPITGDVVALDQVPDEAFASKAVGDGVAVKPTDKIVVSPAAGTIVKIFNTNHAFCLETEKGAEIVVHMGIDTVALEGKGFKRLVEEGAQVSAGQPILEMDLDYLNANARSMISPVVCSNIDDFSGLIIKAQGHIVAGQTPLYEIKK
Take B4: the binding result in test [1] and in test [2] was “binds” each time.
